The text below walks through data of patent EP0705591A2, “Cyclic amidocarboxy surfactants, synthesis and use thereof” (STEPAN COMPANY, priority 1989, dated 1991).

A short description of this data set: Fabric softening evaluation in domestic laundry machine. As to conditions: rating from 1 (harshest) to 3 (softest); about 0.2 percent active softener/weight of towel.

Turning to sodium N-tallowphthalamate, the “AVERAGE, RINSE CYCLE” value is reported as 2.2 and the “AVERAGE, WASH CYCLE” value was determined as 2.
The matching figures for `CCCCCCCCCCCCCCCCCCNC(=O)c1ccccc1C(=O)O.OCCN(CCO)CCO` [Triethanolammonium N-octadecylphthalamate]: 2.1 and 2.
